Assay: peptide synthesis
Settings: conjugation step

N^εB29-6-((((2-oxo-2-((α-D-mannopyranosyl-(1→3)-[α-D-mannopyranosyl-(1→6)]-α-D-mannopyranosyl)-2-oxyethyl)amino) (2-oxo-2-((α-L-fucopyranosyloxy)-2-oxoethyl)amino)ethyl)amino)acetamido)-6-oxohexanoyl Human Insulin (IOC-58)
conjugation yield: 51%

— patent US9884125B2 (Merck Sharp & Dohme Corp., priority 2013, dated 2018)
